Reference: article PMC8339327
These are yes or no findings as the source states them, for the method shown. In cells and extracts the contact can be indirect. Some binding calls cover weakened binding; strength is not graded here. Values belong to the binder of their own block, whether it stands above or below them.

By UniProt entry, the sequences of proteins in these tests, tags left out.
UniProt P06493: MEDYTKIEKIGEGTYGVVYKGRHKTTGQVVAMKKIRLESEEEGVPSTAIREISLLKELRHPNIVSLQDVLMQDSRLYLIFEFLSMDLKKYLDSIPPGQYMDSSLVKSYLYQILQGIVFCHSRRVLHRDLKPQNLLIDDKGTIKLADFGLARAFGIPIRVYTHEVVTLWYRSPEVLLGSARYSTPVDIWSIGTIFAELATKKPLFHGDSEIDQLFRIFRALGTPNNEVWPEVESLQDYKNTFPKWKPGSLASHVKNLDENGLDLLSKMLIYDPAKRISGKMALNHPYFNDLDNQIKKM
UniProt P06748: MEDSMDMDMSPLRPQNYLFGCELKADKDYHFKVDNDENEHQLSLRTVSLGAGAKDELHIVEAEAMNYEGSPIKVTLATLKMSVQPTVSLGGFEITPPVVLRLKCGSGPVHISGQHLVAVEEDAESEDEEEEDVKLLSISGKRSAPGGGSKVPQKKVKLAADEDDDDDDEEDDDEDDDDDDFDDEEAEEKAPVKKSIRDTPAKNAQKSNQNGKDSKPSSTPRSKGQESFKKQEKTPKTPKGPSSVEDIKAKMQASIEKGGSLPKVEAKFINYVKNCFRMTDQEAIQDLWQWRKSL

How the values were obtained:
[1] = target: Cdk1 (human (endogenous in AGS)) (UniProt P06493); assay: co-IP; lysates of AGS cells with ectopic RASSF10 expression; Cdk1 precipitated, blots for cyclin-B and GADD45a
[2] = target: Cdk1 (human (endogenous in AGS)) (UniProt P06493); assay: co-IP; AGS cell lysates, RASSF10 against cyclin-B, Cdk1 or NPM; also reverse co-IP; Western blot
[3] = target: Nucleophosmin (NPM) (human (AGS cells)) (UniProt P06748); assay: as above

binding [1]: binds
B1: growth arrest and DNA damage-inducible alpha (GADD45a) (protein, UniProt P24522 1-165)
chain: MTLEEFSAGEQKTERMDKVGDALEEVLSKALSQRTITVGVYEAAKLLNVDPDNVVLCLLAADEDDDRDVALQIHFTLIQAFCCENDINILRVSNPGRLAELLLLETDAGPAASEGAEQPPDLHCVLVTNPHSSQWKDPALSQLICFCRESRYMDQWVPVINLPER

binding [2]: no binding
binding [3]: no binding
B2: RASSF10 (protein, UniProt A6NK89 1-507)
chain: MDPSEKKISVWICQEEKLVSGLSRRTTCSDVVRVLLEDGCRRRRRQRRSRRLGSAGDPHGPGELPEPPNEDDEDDDEALPQGMLCGPPQCYCIVEKWRGFERILPNKTRILRLWAAWGEEQENVRFVLVRSEASLPNAGPRSAEARVVLSRERPCPARGAPARPSLAMTQEKQRRVVRKAFRKLAKLNRRRQQQTPSSCSSTSSSTASSCSSSPRTHESASVERMETLVHLVLSQDHTIRQQVQRLHELDREIDHYEAKVHLDRMRRHGVNYVQDTYLVGAGIELDGSRPGEEPEEVAAEAEEAAAAPPLAGEAQAAALEELARRCDDLLRLQEQRVQQEELLERLSAEIQEELNQRWMRRRQEELAAREEPLEPDGGPDGELLLEQERVRTQLSTSLYIGLRLNTDLEAVKSDLDYSQQQWDSKKRELQGLLQTLHTLELTVAPDGAPGSGSPSREPGPQACADMWVDQARGLAKSGPGNDEDSDTGLSSMHSQDSDSLPMCESLV
